Measured values from paper PMC4814920.
No constants are given. Whether binding was seen depends on the method and setting.

Target: recombinant shewasin D (Shewanella denitrificans) (UniProt Q12R32)
Assay: SEC; analytical size exclusion under non-denaturing conditions, Superose 12, 20 mM Tris-HCl pH 8.0 with 150 mM NaCl, calibrated with mass markers (13.7-158 kDa); estimated mass ~50 kDa against a theoretical 49025 Da; both purified

binding: no binding
B1: recombinant shewasin D (enzyme, UniProt Q12R32 1-429)
chain: MSKHFIPLPLTNVLADGGYSASVCLGSQLAKVNLIIDTGSSTLVVHENRYQGMHDTRLQSTSLAQQVSYGVGGWFGSVVHTRFNILDVSVDDMPLALVHHEAEHSFINADGIWGMAYHSLNRSYDMSEYLTANAIAPPATYPWPFPENDQPQFPLPEFQSEASDFKQLIHGLPEQDVATAFTLMEQQGLVSNRFAFIAHRSSIHHAKANMTPESLALDPLNQGMLILGGDERLSQYFQGEFTDLKVVHDRYYNVNLLSLSLAGGAPIKLPSALEAQLSRGSSNAIIDTGASLVSLPSQAFTQVIAELSQTVPQAAKLLAPFIGDINKVTQAQSQGIAMSELNLALWPALEFHFEGAADGRASLSCPAECYWQLNSPAPGRAVFKLMGQLAGWPAQSILGLPLLNPYFVLFQRDSGEFGTVRFAAHRQKS
